From the supplement of paper PMC5949888
± gives the standard deviation of the averaged measurements. Most values lie at the floor of the assay. Slopes are relative: functional sequences can read slightly below zero.

Test system: Saccharomyces cerevisiae PS128 hsf1 delta, HSF1(1-493) fusion
Assay: growth estimate (transactivation domain function in HSF1 fusion, heat-shock survival) (a.u. (slope of normalised read count over time)); higher = stronger growth at 37°C, i.e. more transactivation activity
Conditions: library: random library

Row | Substance | growth estimate
1 | GALVIFECPRQYVDPGTFLL | < -0.25
2 | GLPVARSWGIPRPGP | < -0.25
3 | VAFDIEVRFRKRCL | < -0.25
4 | LTT | < -0.25
5 | APLRIEWVLHCVVIRPEGEN | < -0.25
6 | FSLGNDTWSDLHWSFLT | -0.246
7 | LIDNPGLFDGDPCAEQCELG | < -0.25
8 | SFQVNLKRLDRVFPGY | < -0.25
9 | RDDHWKSLPGSSVHSDRDGA | < -0.25
10 | CRSLHPAKMCSCIWFLARVE | < -0.25
11 | GPRR | < -0.25
12 | SEVSIR | < -0.25
13 | FQPSRRTRSGE | < -0.25
14 | TCAPLFWQASQSQLRGEALI | < -0.25
15 | VKSTPRRLLPAPPVSSKGFI | < -0.25
16 | GESDIGCST | < -0.25
17 | PRPFDPALFGVRF | < -0.25
18 | PQKTKAYGTA | < -0.25
19 | SCAVSRT | < -0.25
20 | RSNCNSGTRWQR | < -0.25
21 | VVGSIEAPSHRWLTPNPRRR | < -0.25
22 | CLIT | < -0.25
23 | LGSFSPKQDLFAMLPFRTYN | < -0.25

Copied from the listing for reference:
Row | Substance | growth estimate
2 | GLPVARSWGIPRPGP | < -0.25
3 | VAFDIEVRFRKRCL | < -0.25
4 | LTT | < -0.25

(further entries)

Row | Substance | growth estimate
24 | KCFLQVGSRLAAPGER | < -0.25
25 | NYLNMSLR | < -0.25
26 | KYNWGSVTILRGKLPKPAHG | < -0.25
27 | SCLLPGLPEDLRSQVMGWLT | -0.25
28 | RYNYAVSHGCNGGVARVGGG | < -0.25
29 | TRAYVKGCGQGSQLHNGLSP | < -0.25
30 | RIRNLGLLGAQ | < -0.25
31 | CGRI | < -0.25
32 | DVRYAMHATVGTLLG | < -0.25
33 | GLAWPVTVGGAL | < -0.25
34 | GFNDG | < -0.25
35 | FNVVQRDC | < -0.25
36 | QSYVICYLVVTTRCASSLCV | < -0.25
37 | VDVCGCTFRADTLCGRTIWG | < -0.25
38 | LSFDPIHIGRTAHWLPTRDP | < -0.25
39 | YNYR | < -0.25
40 | RRCRG | < -0.25
41 | SVGHSNPGHPPMCVPTFLGP | < -0.25
42 | TGACMCLLTGLPPTWNVGNR | < -0.25
43 | QKSLS | < -0.25
44 | LGREVWAATTRI | < -0.25
45 | PVTGSKRDSYRVHIPQDGVP | < -0.25
46 | VLVEH | < -0.25

As entered above.
PVTGSKRDSYRVHIPQDGVP | growth estimate: < -0.25
KCFLQVGSRLAAPGER | growth estimate: < -0.25
FNVVQRDC | growth estimate: < -0.25
SVGHSNPGHPPMCVPTFLGP | growth estimate: < -0.25
YNYR | growth estimate: < -0.25

(continued)

Row | Substance | growth estimate
47 | NTLCRSSHDSGCYS | < -0.25
48 | KWS | < -0.25
49 | SEVNRASVTCPSPYVSRFLA | < -0.25
50 | WEE | < -0.25
51 | PCLVSAVSEGTWSVSVPRVS | < -0.25
52 | ASNALKSVSWAPVLVLRALL | < -0.25
53 | RVLCLARRAQYHSVLDCFAF | < -0.25
54 | QFLGFVTLVAGPALLIWESR | < -0.25
55 | VRTGPPGSMLSKIERGVSLG | < -0.25
56 | YNGQVGQHPTDVPSGPEGPT | < -0.25
57 | PFWKATEGHKYSRISDAYRA | < -0.25
58 | TKMTIGER | < -0.25
59 | HPWLWRGFE | < -0.25
60 | CPLRPGSMPCDSEPIVLSFG | < -0.25
61 | RNL | -0.248 ± 0.0039
62 | SCTACTETLACETILFENAG | -0.188
63 | PIQHPSRLDRTDACAKCPAV | < -0.25
64 | HLLNPPSMAYLKRWDLSR | -0.207
65 | FHFTQGGFVRVFLASPLPAF | < -0.25
66 | AARGSNAMQYAKLLPEYCLC | < -0.25
67 | GWSARCVNLTSVFQCARGPR | -0.246
68 | SHRMHVRLQGNRYNS | < -0.25
69 | GFAV | < -0.25

Row | Substance | growth estimate
70 | LPGTGVCFYKKE | < -0.25
71 | RSLVGCPSKHAVRFVVPPAS | < -0.25
72 | IRFLLVVYLAETESMRESEE | < -0.25
73 | VRSQDKPGDNRN | < -0.25
74 | LRRRR | < -0.25
75 | SGLEVTLSLGQ | < -0.25
76 | RMVTISLRTPMPLGTTSRAI | < -0.25
77 | EEKVRPTHLGDYKRMIWTMR | < -0.25
78 | RSPFE | < -0.25
79 | LFHENATRCRSCIVFVFTAS | < -0.25
80 | WERTRTFRLAYWTVWFRRKL | < -0.25
81 | GCQLKARVLLHWASRRCVSV | < -0.25
82 | MIALSMIGSQPKTISCEYS | < -0.25
83 | VLAATIG | < -0.25
84 | QVKKCRKHRG | < -0.25
85 | LSSWTGG | < -0.25
86 | RELLRSVRKSRHFKSVFEPS | < -0.25
87 | IWLIWGVPTVPAR | < -0.25
88 | RHVCSCRARLVIHVLGDVTG | < -0.25
89 | WLYGVSHIKTGPLAFHVPSC | < -0.25
90 | PVILRKCGFGSISIGFPCGQ | < -0.25
91 | RSNGP | < -0.25
92 | KQLALGNCYRREWGGATGRG | < -0.25

Row | Substance | growth estimate
93 | NSSPLVGGHMLPLTNSKPIM | < -0.25
94 | EFCCSPGTHSLPGLYRRTCM | < -0.25
95 | ASTDWGEPLLGKKLVSARTR | -0.246
96 | RQVGLKAQR | < -0.25
97 | IVEFI | < -0.25
98 | NLPIRTKFVLVRTLGGLH | < -0.25
99 | LLTEPIV | -0.243
100 | GKGRGTRVLVKRR | < -0.25
101 | LPLKPGCRHTPGDFSGFTET | < -0.25
102 | LDTLLGAGLQGSGM | < -0.25
103 | HQMH | < -0.25
104 | LHTVPAVFRVNPPMCQGTEC | < -0.25
105 | TGPHLYYVSHNIFGELTPSP | < -0.25
106 | RVGMTRLIL | < -0.25
107 | LCNTAGILNYPSASRCGLNG | < -0.25
108 | GDSGNLLHVIVRPPYPGCRV | < -0.25
109 | GCTPVRRAHGSARLMRRISG | < -0.25
110 | VCRFDYGAHDGTE | < -0.25
111 | GSILQRAVIGYSIRVESRSI | < -0.25
112 | NEKCQGITRRRPT | < -0.25
113 | LMSVSRLQLFSVARLASFVT | < -0.25
114 | VTPGGPVTGKHSFCLLEFRE | < -0.25
115 | FDYKPRIVPGSRFVCSAKCP | < -0.25

Row | Substance | growth estimate
116 | GLAQD | < -0.25
117 | SLSEGALRYLSRSATRPSIV | < -0.25
118 | SVFYTSWILDIY | < -0.25
119 | NLGGSREVAPREAGSVNPPE | < -0.25
120 | WHIPINFEGRRSYMKGGAQD | < -0.25
121 | DTMDVVRHQLTPRLGLQLVV | < -0.25
122 | EPKELKSDTSHAPKRVIIIR | < -0.25
123 | AGVR | < -0.25
124 | LSLCVFLREARTRSLKHDEL | < -0.25
125 | GGLLIIRGLSACIRSRCNVE | < -0.25
126 | PIWGPP | < -0.25
127 | ARRLSCMSEILRRHTIAELK | < -0.25
128 | GFHTQHLPSALYWDVDRV | < -0.25
129 | TSRFLVV | < -0.25
130 | TYGKCMTPRSNSFQLHLGER | < -0.25
131 | CGHNSHAYPRLGWRVHKTRS | < -0.25
132 | CGIVESGFCRSRKCTLLSCC | < -0.25
133 | RSFSSRRNSMSETRCHLPLT | < -0.25
134 | QRVT | < -0.25
135 | YAVE | < -0.25
136 | LGTRTILKVSDRAGT | < -0.25
137 | VANRQQGREAQSPALSGVPR | < -0.25
138 | SCCLTTRGPGRVSPVAGSMY | < -0.25

Row | Substance | growth estimate
139 | PNCYVSV | < -0.25
140 | WGALGVWKAQGLSKATCTER | < -0.25
141 | LIVAAI | < -0.25
142 | SRGHNSYSNPWHTGISRAED | < -0.25
143 | INFTKRSHIRERSLSVYQVS | < -0.25
144 | ASVIQQLR | < -0.25
145 | NEISRCLVLVVRSAPHSLSN | < -0.25
146 | IKLI | < -0.25
147 | GGIGQGCGLLSVPLTVILID | < -0.25
148 | ELQSVRESETR | < -0.25
149 | ENMWGG | < -0.25
150 | WKLSVLCSVSITSL | < -0.25
151 | GKTLHVRRCRAALCDHFLPV | < -0.25
152 | LTRPSLISDDMR | < -0.25
153 | LSSRLLLNPR | < -0.25
154 | ECQVRSSHGSDDFVYVSGKR | < -0.25
155 | LGSSDGRRVGPSPMGGPSSL | < -0.25
156 | RTCSGTIHRTAASKFA | < -0.25
157 | LLDNTVRSGGLPKVAGFSVL | < -0.25
